± gives the standard deviation of the averaged measurements. This is a selection; strong and weak results do not stand in their true shares.

The chains behind the UniProt entries cited, without tags or fusion partners. Where a name states a change or a piece, a line headed by the entry shows the natural chain unless it says otherwise.
UniProt Q9BWS9: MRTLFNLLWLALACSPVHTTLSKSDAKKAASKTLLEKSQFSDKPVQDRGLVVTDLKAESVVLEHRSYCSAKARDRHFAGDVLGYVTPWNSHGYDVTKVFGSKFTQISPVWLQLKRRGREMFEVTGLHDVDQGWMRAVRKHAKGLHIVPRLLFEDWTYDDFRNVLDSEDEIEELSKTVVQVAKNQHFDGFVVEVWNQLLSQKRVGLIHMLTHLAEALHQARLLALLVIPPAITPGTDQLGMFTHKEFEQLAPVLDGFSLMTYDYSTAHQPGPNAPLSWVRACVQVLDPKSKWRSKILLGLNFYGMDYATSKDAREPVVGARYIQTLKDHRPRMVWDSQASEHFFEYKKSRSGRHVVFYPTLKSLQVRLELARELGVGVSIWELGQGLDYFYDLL
UniProt Q9BQ24: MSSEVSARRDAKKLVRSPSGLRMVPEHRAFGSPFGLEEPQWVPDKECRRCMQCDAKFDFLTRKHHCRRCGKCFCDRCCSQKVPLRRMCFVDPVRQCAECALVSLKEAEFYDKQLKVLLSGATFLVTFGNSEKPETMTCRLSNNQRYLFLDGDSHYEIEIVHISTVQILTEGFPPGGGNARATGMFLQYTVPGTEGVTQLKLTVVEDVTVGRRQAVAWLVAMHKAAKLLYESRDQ
UniProt Q9BRX8: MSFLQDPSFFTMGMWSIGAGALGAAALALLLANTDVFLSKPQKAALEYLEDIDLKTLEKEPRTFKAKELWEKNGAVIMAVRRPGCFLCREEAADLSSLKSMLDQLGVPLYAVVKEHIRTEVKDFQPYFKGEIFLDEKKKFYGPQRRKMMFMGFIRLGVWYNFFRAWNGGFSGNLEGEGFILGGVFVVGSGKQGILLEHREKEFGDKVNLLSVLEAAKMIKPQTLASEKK
UniProt Q9BPZ7, whole entry: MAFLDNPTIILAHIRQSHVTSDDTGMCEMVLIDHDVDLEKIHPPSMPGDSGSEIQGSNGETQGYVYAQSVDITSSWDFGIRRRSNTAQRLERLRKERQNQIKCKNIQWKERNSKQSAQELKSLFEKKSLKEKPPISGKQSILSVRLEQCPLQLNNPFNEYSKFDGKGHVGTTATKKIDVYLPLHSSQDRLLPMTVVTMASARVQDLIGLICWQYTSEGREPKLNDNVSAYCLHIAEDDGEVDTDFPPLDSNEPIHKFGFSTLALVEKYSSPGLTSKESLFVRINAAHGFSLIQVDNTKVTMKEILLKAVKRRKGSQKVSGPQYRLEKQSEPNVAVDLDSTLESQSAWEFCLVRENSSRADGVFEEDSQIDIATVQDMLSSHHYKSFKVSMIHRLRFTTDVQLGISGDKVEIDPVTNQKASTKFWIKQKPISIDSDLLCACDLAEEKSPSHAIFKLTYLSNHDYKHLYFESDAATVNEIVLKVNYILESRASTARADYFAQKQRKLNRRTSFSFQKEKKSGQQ
UniProt Q9BQF6: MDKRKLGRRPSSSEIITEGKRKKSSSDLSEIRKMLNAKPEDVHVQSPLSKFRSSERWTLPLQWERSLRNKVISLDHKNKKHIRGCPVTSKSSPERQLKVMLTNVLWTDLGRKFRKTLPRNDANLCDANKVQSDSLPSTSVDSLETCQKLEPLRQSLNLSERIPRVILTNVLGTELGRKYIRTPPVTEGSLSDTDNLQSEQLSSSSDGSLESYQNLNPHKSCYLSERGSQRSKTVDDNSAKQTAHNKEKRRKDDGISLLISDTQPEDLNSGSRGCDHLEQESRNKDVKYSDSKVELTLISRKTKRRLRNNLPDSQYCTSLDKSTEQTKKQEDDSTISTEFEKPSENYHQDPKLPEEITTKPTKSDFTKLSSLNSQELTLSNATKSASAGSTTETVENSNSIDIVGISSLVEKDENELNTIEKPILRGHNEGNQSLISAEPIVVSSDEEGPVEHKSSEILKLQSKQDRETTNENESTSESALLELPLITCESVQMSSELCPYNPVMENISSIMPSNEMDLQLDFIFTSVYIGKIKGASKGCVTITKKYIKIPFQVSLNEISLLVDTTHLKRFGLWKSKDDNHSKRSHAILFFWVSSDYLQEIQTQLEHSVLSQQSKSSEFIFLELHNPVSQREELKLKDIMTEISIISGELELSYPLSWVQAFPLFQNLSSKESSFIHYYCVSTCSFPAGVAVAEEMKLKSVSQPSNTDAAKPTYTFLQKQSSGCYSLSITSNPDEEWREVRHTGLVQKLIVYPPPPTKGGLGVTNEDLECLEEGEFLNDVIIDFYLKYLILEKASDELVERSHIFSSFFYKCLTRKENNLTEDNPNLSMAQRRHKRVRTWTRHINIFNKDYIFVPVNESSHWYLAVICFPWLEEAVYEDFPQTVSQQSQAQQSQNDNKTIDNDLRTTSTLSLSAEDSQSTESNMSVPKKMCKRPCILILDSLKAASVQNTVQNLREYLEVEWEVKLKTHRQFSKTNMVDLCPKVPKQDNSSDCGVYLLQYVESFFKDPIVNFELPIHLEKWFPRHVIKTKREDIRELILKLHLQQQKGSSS
UniProt Q9BQS8: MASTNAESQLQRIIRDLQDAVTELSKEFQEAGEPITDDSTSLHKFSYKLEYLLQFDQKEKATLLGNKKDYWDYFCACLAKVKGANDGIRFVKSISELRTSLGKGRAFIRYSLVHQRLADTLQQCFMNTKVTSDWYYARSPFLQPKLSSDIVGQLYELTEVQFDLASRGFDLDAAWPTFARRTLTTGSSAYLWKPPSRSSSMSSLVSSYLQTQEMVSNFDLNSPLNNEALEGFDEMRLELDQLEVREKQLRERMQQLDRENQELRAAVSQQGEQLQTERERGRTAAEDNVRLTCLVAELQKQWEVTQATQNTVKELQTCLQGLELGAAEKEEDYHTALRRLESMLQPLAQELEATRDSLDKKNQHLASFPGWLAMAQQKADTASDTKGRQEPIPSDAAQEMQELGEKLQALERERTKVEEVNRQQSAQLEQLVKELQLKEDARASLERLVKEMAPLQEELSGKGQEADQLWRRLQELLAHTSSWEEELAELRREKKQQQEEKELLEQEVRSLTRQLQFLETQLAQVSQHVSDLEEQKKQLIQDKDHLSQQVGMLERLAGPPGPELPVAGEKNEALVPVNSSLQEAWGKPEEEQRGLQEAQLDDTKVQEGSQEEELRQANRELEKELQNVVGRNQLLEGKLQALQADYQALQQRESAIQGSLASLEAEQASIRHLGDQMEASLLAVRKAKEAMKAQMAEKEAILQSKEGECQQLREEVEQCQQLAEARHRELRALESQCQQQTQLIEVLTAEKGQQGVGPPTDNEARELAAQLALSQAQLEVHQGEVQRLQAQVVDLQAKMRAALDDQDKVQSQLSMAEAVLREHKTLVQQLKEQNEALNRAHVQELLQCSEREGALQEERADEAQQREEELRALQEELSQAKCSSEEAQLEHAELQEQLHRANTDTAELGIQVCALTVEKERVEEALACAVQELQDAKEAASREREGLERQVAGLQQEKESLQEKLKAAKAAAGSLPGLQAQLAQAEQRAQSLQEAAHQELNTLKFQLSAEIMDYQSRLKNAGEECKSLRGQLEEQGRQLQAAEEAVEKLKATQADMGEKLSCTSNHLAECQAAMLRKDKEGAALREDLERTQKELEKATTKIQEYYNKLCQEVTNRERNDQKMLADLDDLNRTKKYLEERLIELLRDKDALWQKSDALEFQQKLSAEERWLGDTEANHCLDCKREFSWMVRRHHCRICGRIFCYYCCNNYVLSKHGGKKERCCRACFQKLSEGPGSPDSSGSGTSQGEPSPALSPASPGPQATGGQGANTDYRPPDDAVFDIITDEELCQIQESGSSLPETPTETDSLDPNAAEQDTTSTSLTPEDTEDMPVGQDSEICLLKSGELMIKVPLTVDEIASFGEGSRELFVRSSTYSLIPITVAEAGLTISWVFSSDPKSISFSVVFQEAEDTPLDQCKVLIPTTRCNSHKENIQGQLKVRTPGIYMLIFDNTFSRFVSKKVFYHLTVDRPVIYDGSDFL
UniProt Q9BPW8: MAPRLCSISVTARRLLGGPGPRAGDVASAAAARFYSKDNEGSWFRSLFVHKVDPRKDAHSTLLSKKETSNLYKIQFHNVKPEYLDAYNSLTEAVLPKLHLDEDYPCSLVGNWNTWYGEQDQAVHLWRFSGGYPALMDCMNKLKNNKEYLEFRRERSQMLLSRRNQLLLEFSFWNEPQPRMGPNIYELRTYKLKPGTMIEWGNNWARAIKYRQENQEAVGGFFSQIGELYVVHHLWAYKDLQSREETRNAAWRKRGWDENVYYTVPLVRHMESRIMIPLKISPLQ
UniProt Q9BRV8: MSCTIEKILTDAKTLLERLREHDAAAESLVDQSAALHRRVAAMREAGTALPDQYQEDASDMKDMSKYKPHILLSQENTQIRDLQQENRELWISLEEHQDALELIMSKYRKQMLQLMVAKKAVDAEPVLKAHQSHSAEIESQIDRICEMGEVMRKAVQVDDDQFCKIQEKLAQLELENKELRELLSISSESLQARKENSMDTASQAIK
UniProt Q9BUT1: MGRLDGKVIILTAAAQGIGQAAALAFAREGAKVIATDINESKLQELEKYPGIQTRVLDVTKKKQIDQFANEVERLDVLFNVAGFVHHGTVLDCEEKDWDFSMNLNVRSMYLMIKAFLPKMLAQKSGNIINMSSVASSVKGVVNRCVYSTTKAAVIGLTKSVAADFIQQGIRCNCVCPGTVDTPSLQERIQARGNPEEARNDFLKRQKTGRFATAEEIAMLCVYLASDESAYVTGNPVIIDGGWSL
UniProt Q9BTV5: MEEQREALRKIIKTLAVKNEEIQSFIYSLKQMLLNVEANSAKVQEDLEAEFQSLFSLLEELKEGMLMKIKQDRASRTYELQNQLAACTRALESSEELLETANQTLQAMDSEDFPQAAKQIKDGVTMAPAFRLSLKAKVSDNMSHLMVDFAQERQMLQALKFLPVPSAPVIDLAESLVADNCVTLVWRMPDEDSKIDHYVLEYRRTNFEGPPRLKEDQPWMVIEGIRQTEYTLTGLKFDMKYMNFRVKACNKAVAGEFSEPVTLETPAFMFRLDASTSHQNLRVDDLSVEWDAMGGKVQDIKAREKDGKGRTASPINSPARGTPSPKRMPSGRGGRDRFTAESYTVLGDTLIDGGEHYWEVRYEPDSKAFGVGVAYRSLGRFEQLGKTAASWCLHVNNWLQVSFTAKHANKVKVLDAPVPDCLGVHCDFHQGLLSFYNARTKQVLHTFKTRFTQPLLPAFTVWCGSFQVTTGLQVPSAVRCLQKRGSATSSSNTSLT
UniProt Q99436: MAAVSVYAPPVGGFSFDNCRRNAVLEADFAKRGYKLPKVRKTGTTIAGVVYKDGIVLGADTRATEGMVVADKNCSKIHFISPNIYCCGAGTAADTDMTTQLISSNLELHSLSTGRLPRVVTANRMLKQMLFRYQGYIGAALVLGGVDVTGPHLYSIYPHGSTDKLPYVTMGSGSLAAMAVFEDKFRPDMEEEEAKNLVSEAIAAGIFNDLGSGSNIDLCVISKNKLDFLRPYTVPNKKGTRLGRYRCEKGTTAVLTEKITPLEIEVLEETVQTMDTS
UniProt Q99442: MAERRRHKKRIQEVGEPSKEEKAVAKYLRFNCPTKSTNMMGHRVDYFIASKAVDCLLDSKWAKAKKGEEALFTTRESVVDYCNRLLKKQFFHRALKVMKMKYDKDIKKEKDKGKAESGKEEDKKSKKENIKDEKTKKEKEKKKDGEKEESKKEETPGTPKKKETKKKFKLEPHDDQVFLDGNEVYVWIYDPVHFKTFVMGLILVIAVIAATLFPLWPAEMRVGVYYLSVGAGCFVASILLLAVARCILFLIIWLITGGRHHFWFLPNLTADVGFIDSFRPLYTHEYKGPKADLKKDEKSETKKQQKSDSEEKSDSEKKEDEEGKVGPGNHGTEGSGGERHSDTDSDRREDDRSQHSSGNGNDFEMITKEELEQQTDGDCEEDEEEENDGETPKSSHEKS
UniProt Q9BPZ3: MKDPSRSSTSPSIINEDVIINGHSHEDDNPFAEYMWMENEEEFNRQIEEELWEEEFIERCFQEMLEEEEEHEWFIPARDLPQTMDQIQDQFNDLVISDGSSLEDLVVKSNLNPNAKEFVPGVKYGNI
UniProt Q9BZE9, whole entry: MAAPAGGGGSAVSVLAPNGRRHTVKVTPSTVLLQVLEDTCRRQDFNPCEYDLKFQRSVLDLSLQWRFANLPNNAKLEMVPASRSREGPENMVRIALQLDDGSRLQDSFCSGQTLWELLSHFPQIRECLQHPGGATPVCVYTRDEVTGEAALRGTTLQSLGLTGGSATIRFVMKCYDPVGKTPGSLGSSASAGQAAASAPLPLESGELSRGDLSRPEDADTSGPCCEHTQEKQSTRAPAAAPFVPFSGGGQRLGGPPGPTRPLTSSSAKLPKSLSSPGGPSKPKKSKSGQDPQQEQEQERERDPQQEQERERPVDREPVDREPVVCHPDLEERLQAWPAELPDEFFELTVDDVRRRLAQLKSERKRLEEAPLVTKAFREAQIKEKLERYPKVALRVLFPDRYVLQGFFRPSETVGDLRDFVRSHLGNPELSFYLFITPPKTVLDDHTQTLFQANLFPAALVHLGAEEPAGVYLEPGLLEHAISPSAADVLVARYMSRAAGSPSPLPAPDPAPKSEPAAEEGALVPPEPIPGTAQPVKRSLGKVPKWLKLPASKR

Compound in the test: Nc1ncnc2c1ncn2[C@@H]1O[C@H](COP(=O)(O)OP(=O)(O)OP(=O)(O)O)[C@@H](O)[C@H]1O [adenosine triphosphate]
In words: NP40-soluble protein abundance relative to vehicle (solubility fold change) (ratio); higher = more soluble protein in presence of ATP. The note with it: concentration: 10mM. Put shortly: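 Jurkat crude lysate (Dounce-homogenised) was treated with eight concentrations from 0.1 to 10 mM for 10 min at room temperature, then 3 min at 37 °C. It was solubilised with 0.8% NP40 and benzonase (60 min, 4 °C) and ultracentrifuged, and the supernatant was TMT-labelled for LC-MS/MS. Intensities were vsn-normalised, and the value is the fold change against the NP40-processed vehicle per replicate, from three independent experiments.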
Regarding HDHD3 (UniProt Q9BSH5), the NP40-soluble protein abundance is 0.992 ± 0.019.

UniProt Q9BRA0 and related entries: the NP40-soluble protein abundance worked out at 0.892 ± 0.082.

Turning to CARD11 (UniProt Q9BXL7), the NP40-soluble protein abundance was 0.988 ± 0.027.

Take UniProt Q9BW91 and related entries: the NP40-soluble protein abundance turned out to be 1.02 ± 0.086.

UniProt Q9BWS9 and related entries: the NP40-soluble protein abundance came to 1.04 ± 0.035.

In the case of UniProt Q99549 and related entries, the NP40-soluble protein abundance came out at 1.109 ± 0.0081.

In the case of UniProt Q9BQ24 and related entries, the NP40-soluble protein abundance was 1.02 ± 0.026.

For UniProt Q9BRX8 and related entries, the NP40-soluble protein abundance was 0.919 ± 0.049.

With UniProt Q9BPZ7 and related entries, the NP40-soluble protein abundance was found to be 1.09 ± 0.13.

For UniProt Q9BQF6 and related entries, the NP40-soluble protein abundance came out at 1.18 ± 0.092.

As for UniProt Q9BQS8 and related entries, the NP40-soluble protein abundance came to 0.969 ± 0.021.

Take PIK3R4 (UniProt Q99570): the NP40-soluble protein abundance was determined as 1.01 ± 0.041.

Turning to NIPSNAP1 (UniProt Q9BPW8), the NP40-soluble protein abundance came out at 0.943 ± 0.072.

As to NLN (UniProt Q9BYT8), the NP40-soluble protein abundance is 0.964 ± 0.049.

For SIKE1 (UniProt Q9BRV8), the NP40-soluble protein abundance came out at 0.89 ± 0.046.

Take UniProt Q9BSB4: the NP40-soluble protein abundance was found to be 1.04 ± 0.095.

Turning to MACROD1 (UniProt Q9BQ69), the NP40-soluble protein abundance turned out to be 0.866 ± 0.06.

Regarding UniProt Q9BUT1 and related entries, the NP40-soluble protein abundance stood at 0.89 ± 0.018.

In the case of FSD1 (UniProt Q9BTV5), the NP40-soluble protein abundance worked out at 1 ± 0.031.

Take PSMB7 (UniProt Q99436): the NP40-soluble protein abundance amounted to 0.861 ± 0.061.

With SEC62 (UniProt Q99442), the NP40-soluble protein abundance was 0.924 ± 0.035.

Regarding “UniProt Q9BZ29-4|A0A088AWN3|A0A0A0MRA7|A0A0A0MSY4|Q9BZ29 and related entries”, the NP40-soluble protein abundance was determined as 1.02 ± 0.074.

Turning to PAIP2 (UniProt Q9BPZ3), the NP40-soluble protein abundance is 0.871 ± 0.074.

For the target UniProt Q9BZE9 and related entries, the NP40-soluble protein abundance was determined as 0.886 ± 0.031.

Values taken from the supplement of paper PMC6411743.
